These are yes or no findings as the source states them, for the method shown. Some binding calls cover weakened binding; strength is not graded here. Tags and fused reporters may be left off the sequences shown.
Legend:
Assay in all cases: pull-down
[1] = target: RALY (UniProt Q9UKM9)
[2] = target: T1, FLAG-tagged SRSF8 (UniProt Q9BRL6)
T1 sequence: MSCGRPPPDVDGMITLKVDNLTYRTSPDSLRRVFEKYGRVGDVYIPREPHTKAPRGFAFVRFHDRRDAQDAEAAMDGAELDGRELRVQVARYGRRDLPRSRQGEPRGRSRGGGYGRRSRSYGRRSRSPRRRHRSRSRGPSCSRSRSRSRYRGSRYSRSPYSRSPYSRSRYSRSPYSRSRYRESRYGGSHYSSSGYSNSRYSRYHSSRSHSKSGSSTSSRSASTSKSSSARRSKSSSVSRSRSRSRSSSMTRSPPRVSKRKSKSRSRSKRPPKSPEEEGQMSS

Amino acid sequences for entries named in this document (tags omitted).
UniProt Q9UKM9: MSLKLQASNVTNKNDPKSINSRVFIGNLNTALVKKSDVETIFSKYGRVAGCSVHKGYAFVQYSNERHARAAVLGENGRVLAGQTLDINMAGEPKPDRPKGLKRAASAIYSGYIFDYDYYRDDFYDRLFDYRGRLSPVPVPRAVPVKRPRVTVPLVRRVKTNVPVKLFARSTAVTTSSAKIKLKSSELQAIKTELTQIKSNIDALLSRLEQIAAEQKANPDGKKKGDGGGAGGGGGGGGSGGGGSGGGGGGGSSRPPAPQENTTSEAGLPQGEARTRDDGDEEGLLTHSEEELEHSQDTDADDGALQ
UniProt Q07955: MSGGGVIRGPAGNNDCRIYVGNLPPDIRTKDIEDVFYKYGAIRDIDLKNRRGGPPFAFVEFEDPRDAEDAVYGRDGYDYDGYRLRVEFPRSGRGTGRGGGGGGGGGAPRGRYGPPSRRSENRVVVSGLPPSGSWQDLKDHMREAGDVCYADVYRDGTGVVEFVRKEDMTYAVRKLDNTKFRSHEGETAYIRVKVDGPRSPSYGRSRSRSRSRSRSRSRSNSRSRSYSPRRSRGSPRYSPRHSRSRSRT
UniProt P26599: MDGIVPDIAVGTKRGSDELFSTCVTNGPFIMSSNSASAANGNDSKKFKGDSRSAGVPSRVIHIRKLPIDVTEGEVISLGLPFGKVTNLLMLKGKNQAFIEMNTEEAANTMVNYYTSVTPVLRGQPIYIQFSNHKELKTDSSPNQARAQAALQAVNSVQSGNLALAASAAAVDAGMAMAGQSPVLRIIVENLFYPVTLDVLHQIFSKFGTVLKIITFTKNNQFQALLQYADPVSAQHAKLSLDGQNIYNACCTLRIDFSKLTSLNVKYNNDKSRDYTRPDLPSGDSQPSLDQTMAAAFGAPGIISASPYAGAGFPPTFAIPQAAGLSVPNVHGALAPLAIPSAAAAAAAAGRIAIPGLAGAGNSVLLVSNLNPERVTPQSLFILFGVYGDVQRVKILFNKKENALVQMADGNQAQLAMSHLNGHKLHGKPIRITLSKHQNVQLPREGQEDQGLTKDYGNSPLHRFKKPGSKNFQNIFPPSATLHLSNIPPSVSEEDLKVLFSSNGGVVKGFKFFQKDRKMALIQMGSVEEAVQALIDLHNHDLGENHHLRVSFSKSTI

[3] = target: GST-tagged SRSF1 (UniProt Q07955)
[4] = target: T2, FLAG-tagged SRSF5 (UniProt Q13243)
T2 sequence: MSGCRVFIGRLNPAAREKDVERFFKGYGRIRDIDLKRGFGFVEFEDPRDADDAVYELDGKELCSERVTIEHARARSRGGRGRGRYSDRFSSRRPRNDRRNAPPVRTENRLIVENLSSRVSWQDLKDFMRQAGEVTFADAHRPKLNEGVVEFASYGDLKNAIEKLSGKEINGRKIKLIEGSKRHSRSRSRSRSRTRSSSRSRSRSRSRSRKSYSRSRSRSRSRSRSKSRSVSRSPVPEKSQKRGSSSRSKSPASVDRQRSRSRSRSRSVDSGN

[5] = target: T3, FLAG-tagged SRSF2 (UniProt Q01130)
T3 sequence: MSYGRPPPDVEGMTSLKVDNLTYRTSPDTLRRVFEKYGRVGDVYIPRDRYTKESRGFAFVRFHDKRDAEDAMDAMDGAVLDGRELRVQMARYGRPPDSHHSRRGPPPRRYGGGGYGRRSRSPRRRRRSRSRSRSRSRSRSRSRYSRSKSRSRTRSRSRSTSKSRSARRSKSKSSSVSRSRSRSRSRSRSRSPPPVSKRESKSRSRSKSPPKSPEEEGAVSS

[6] = target: GST-tagged PTBP1 (UniProt P26599)

binding [1]: binds
binding [2]: binds
binding [3]: binds
binding [4]: binds
binding [5]: binds
binding [6]: binds
B1: HIS-tagged Aurora-A (enzyme, UniProt O14965 1-403)
chain: MDRSKENCISGPVKATAPVGGPKRVLVTQQFPCQNPLPVNSGQAQRVLCPSNSSQRIPLQAQKLVSSHKPVQNQKQKQLQATSVPHPVSRPLNNTQKSKQPLPSAPENNPEEELASKQKNEESKKRQWALEDFEIGRPLGKGKFGNVYLAREKQSKFILALKVLFKAQLEKAGVEHQLRREVEIQSHLRHPNILRLYGYFHDATRVYLILEYAPLGTVYRELQKLSKFDEQRTATYITELANALSYCHSKRVIHRDIKPENLLLGSAGELKIADFGWSVHAPSSRRTTLCGTLDYLPPEMIEGRMHDEKVDLWSLGVLCYEFLVGKPPFEANTYQETYKRISRVEFTFPDFVTEGARDLISRLLKHNPSQRPMLREVLEHPWITANSSKPSNCQNKESASKQS
